{
  "sequences": {"note": "Protein sequences, listed by entry. Tags and fused reporters are not part of them. Lines headed by an entry give the natural chain unless they say otherwise; changes in a name come on top.", "UniProt Q96T37": "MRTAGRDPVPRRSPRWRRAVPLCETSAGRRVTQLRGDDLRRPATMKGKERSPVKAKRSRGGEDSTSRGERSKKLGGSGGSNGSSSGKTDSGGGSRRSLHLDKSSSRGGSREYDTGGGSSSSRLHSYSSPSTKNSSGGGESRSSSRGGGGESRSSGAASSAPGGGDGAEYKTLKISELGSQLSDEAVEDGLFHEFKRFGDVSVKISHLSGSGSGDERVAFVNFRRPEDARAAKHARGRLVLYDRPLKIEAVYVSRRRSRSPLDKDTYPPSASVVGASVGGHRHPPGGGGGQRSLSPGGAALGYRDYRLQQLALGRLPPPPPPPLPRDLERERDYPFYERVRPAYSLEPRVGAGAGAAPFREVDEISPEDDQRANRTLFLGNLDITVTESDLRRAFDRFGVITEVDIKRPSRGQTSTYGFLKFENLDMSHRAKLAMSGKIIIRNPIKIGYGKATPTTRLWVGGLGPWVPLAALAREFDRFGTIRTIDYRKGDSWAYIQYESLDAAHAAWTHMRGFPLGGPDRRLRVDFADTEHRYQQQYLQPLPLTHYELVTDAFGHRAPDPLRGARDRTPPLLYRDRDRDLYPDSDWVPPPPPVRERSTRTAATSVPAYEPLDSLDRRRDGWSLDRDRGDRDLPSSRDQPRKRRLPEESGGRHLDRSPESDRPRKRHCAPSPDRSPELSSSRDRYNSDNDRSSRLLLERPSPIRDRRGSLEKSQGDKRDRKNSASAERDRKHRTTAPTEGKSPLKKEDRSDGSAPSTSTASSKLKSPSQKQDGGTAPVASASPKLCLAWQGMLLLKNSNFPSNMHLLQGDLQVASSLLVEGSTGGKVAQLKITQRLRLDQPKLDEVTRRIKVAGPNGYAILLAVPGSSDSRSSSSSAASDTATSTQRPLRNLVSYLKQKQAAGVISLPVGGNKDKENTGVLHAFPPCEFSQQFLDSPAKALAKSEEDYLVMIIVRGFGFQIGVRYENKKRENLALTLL", "UniProt Q9UPS6": "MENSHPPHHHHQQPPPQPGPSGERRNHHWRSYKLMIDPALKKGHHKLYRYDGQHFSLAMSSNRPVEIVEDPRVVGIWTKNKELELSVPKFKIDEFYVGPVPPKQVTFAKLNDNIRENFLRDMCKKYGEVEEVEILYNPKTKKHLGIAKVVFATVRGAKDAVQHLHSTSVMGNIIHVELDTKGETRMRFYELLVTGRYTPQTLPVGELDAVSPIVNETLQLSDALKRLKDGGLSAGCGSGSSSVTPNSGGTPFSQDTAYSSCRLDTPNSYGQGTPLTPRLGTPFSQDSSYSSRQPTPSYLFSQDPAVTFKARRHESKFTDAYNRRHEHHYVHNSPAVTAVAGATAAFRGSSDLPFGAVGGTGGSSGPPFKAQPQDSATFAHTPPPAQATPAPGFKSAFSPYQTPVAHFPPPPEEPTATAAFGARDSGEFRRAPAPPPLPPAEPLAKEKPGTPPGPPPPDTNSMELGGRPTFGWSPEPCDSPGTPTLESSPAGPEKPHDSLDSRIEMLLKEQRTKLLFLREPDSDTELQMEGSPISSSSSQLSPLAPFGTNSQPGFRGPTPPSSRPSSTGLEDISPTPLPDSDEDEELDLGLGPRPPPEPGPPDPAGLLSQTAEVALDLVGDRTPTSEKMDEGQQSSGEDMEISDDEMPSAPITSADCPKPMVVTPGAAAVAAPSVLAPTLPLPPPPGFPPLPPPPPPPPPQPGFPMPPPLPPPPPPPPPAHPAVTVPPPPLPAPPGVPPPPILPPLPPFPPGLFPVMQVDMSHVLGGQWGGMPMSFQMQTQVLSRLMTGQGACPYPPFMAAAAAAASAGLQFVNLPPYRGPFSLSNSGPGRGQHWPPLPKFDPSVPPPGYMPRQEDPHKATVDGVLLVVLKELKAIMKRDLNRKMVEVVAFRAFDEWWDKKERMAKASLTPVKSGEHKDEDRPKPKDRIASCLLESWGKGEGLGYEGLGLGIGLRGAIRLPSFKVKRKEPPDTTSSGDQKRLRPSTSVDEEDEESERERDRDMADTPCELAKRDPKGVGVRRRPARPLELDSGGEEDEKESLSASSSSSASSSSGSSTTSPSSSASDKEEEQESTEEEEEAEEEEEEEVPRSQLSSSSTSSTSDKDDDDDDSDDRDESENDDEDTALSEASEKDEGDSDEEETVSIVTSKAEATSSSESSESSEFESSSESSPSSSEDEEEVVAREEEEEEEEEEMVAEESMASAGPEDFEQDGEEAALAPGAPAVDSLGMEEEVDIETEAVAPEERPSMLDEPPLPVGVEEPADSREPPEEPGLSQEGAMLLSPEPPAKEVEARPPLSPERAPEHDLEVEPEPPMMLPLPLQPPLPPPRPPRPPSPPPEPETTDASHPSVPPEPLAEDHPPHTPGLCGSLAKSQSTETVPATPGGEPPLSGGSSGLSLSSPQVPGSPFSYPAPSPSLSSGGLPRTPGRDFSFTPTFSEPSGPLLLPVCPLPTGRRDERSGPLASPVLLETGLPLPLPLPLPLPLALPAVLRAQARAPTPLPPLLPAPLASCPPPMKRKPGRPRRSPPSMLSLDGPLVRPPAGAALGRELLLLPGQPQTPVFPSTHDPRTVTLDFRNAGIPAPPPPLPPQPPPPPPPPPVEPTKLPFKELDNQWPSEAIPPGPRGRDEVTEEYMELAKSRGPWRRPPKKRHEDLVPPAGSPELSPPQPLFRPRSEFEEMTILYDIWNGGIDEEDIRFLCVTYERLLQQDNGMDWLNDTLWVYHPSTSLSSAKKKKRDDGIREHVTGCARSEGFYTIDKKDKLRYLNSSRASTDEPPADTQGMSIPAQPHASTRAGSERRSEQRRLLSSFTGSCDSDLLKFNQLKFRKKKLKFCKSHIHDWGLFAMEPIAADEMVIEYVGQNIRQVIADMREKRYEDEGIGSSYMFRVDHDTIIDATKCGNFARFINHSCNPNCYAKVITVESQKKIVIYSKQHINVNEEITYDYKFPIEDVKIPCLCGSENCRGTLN"},
  "source": "paper PMC3424240",
  "key": {"[1]": {"target": "FLAG-Rbm15 mutated at K938 (human) (UniProt Q96T37)", "test": "co-IP; FLAG immunoprecipitation from whole cell extracts of transiently transfected HEK293 cells, Western blotting for endogenous partners"}, "[2]": {"target": "FLAG-Rbm15 mutated at K942 (human) (UniProt Q96T37)", "test": "co-IP; FLAG immunoprecipitation from whole cell extracts of transiently transfected HEK293 cells, Western blotting for endogenous partners"}},
  "note": "These are yes or no findings as the source states them, for the method shown. Binding seen in cells or lysates may run through a third protein. A result given as binding can be weak or reduced; the word gives no strength.",
  "data": [
    {"substance": "endogenous Setd1b (from UniProt Q9UPS6 1-1966)", "values": [
      {"measurement": "binding", "setting": "[1]", "result": "binds"},
      {"measurement": "binding", "setting": "[2]", "result": "binds"}
    ]}
  ]
}
